Laboratory results published in publication PMC3486835.
Results are given in words; binding and its absence hold for the method and conditions named. In cells and extracts the contact can be indirect. Some results given as binding are weak or reduced against the parent protein; the word gives no strength.

By UniProt entry, the sequences of proteins in these tests, tags left out.
UniProt P08622: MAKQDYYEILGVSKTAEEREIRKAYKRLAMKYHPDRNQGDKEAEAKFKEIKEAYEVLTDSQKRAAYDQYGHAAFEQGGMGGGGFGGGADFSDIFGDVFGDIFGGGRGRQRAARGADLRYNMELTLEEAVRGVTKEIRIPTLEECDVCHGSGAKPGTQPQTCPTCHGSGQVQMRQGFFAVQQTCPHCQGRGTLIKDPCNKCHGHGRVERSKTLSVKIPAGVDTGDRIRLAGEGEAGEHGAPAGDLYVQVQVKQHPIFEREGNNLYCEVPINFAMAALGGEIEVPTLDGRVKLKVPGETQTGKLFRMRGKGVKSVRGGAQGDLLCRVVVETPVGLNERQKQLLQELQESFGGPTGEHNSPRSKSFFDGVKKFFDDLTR

Target: Flag-tagged DnaJ of Escherichia coli (E. coli) (UniProt P08622)
Assay: co-IP; Flag-tagged Rki or DnaJ from pBAD33 co-expressed with σ^32 from p29SEN-RpoH at 30°C (0.5% L-arabinose, 50 µM IPTG) in E. coli AR3291 (ΔftsH) or in the DnaK depletion strain FA1195 (Ptet dnaKJ, no anhydrotetracycline); anti-Flag M2-agarose, eluted with FLAG peptide; blot with anti-σ^32

B1: heat-shock factor σ^32 (RpoH) of Escherichia coli, plasmid-encoded (protein, UniProt P0AGB3 1-284)
chain: MTDKMQSLALAPVGNLDSYIRAANAWPMLSADEERALAEKLHYHGDLEAAKTLILSHLRFVVHIARNYAGYGLPQADLIQEGNIGLMKAVRRFNPEVGVRLVSFAVHWIKAEIHEYVLRNWRIVKVATTKAQRKLFFNLRKTKQRLGWFNQDEVEMVARELGVTSKDVREMESRMAAQDMTFDLSSDDDSDSQPMAPVLYLQDKSSNFADGIEDDNWEEQAANRLTDAMQGLDERSQDIIRARWLDEDNKSTLQELADRYGVSAERVRQLEKNAMKKLRAAIEA
binding: binds
